Data source: PubChem BioAssay AID504786 (Drosophila RNAi Screening Center, 2011)

- Aim: 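Knock-downs reducing HIF reporter induction by the iron chelator DFO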 (primary screen)
- System: Drosophila S2 cells with a stable HIF luciferase reporter
- Knock-down reagent: long dsRNA against Drosophila genes, about 0.2 µg dsRNA per well of a 384-well plate
- Duration: three days of knock-down, then 20 h of DFO before reading
- Challenge: desferrioxamine (DFO) at 100 µM, an iron chelator that mimics hypoxia, for 20 h
- Measured: 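Firefly luciferase driven by the mouse ldh-a hypoxia-response element, measured after 20 h of 100 µM DFO; z-scores per plate, higher means more signal lost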
- Reading the numbers: z-score: higher = stronger loss of HIF reporter signal
The deposit covers about 21,000 reagents; below is an unselected part of those that have a named target and a result. 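Primary screen; positive scores mean lost reporter signal, so the sign may be inverted from the usual convention.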 A plus sign joins genes that one reagent is predicted to hit. Not all columns of the deposit are shown.

no.	Target gene	PubChem SID	z-score, replicate 1	z-score, replicate 2
1	CG9263	SID104182968	-0.2	-0.5
2	ssp2 (short spindle 2)	SID104190844	-0.3	-0.4
3	Jon25Bi (Jonah 25Bi)	SID104183226	-0.2	-0.1
4	Exd2 (Exonuclease 3'-5' domain-containing 2)	SID104195897	-0.4	-0.4
5	CG11695	SID104199208	0.4	0.9
6	CG7025	SID104182794	0.1	-0.6
7	HIP + HIP-R	SID104198037	-0.2	-0.8
8	CG31924	SID104180481	-0.1	-0.4
9	Cyp6d2 (Cytochrome P450 6d2)	SID104184398	-0.3	-0.5
10	Ephrin	SID104196957	-0.3	-0.6
11	CG13071	SID104189746	-0.4	-0.4
12	Alas (Aminolevulinate synthase)	SID104183836	0.1	-0.3
13	gammaTub37C (gamma-Tubulin at 37C)	SID104183327	-0.3	0.3
14	CG14238	SID104194524	0.1	0.9
15	eIF3g1 (eukaryotic translation initiation factor 3 subunit g1)	SID104198219	6.4	5.5
16	AGO2 (Argonaute 2)	SID104189791	-0.1	0.5
17	AGO2 (Argonaute 2)	SID104190639	-0.4	-0.3
18	CG31142	SID104193439	0.3	0.6
19	Caper	SID104181929	0.2	0.5
20	CG5895	SID104190346	-0.2	0
21	CG12128	SID104185896	-0.2	-0.2
22	mor (moira)	SID104195170	5.3	5.2
23	Caf1-180 (Chromatin assembly factor 1, p180 subunit)	SID104197599	-0.4	-0.4
24	Rift (Riboflavin transporter)	SID104194122	-0.3	-0.5
25	dtn (detonator)	SID104197731	-0.3	-0.5
26	Pfrx (6-phosphofructo-2-kinase)	SID104198648	0	0
27	Pfrx (6-phosphofructo-2-kinase)	SID104199107	0.1	0
28	w (white)	SID104197025	-0.4	0
29	w (white)	SID104198642	-0.1	-0.4

Next part (6 carried over from the part before).
no.	Target gene	PubChem SID	z-score, replicate 1	z-score, replicate 2
24	Rift (Riboflavin transporter)	SID104194122	-0.3	-0.5
25	dtn (detonator)	SID104197731	-0.3	-0.5
26	Pfrx (6-phosphofructo-2-kinase)	SID104198648	0	0
27	Pfrx (6-phosphofructo-2-kinase)	SID104199107	0.1	0
28	w (white)	SID104197025	-0.4	0
29	w (white)	SID104198642	-0.1	-0.4
30	CG30495	SID104186495	-0.4	-0.4
31	CG17652	SID104180303	0.2	-0.2
32	wrm1 (wurmchen 1)	SID104190799	-0.4	-0.6
33	topi (matotopetli)	SID104196223	-0.5	-1
34	Meics (Meiotic central spindle)	SID104191205	-0.4	-0.2
35	ubl (ubiquitin like)	SID104184790	0.3	0.4
36	Max	SID104191010	-0.2	0.1
37	GlcT (Glucosylceramide synthase)	SID104184317	-0.4	-1.1
38	St3 (Sulfotransferase 3)	SID104184297	-0.3	-0.3
39	Qtzl (Quetzalcoatl)	SID104181013	0	0.4
40	Syx13 (Syntaxin 13)	SID104189628	-0.2	0.9
41	TppII (Tripeptidyl-peptidase II)	SID104187357	-0.2	-0.6
42	CG3860	SID104184217	-0.3	-0.4
43	MESR3 (Misexpression suppressor of ras 3)	SID104182255	0	-0.2
44	elm (ethanol sensitive with low memory)	SID104192101	-0.4	-0.4
45	Spn28B (Serpin 28B)	SID104182774	-0.2	-0.6
46	CG13484	SID104189818	0	0.4
47	brwl (brickwall)	SID104180872	-0.7	-0.8
48	brwl (brickwall)	SID104182521	-0.3	-0.6
49	S6KL (S6 Kinase Like)	SID104199141	-0.2	-0.6
50	CG4259	SID104180437	-0.2	-0.3
51	ProRS-m (Prolyl-tRNA synthetase, mitochondrial)	SID104188053	-0.2	0
52	CG32679	SID104197436	-0.2	-0.3
53	CG16762	SID104188285	-0.1	0
54	CG13947	SID104180157	-0.2	0.3
55	CG14632 (retired record)	SID104197734	-0.3	-0.7
56	Zmynd8 (Zinc finger MYND-type containing 8)	SID104195102	0	-0.6
